No constants are given. Whether binding was seen depends on the method and setting. Some binding calls cover weakened binding; strength is not graded here.
Experiments:
mD1D2-CaM (murine) [1] = biological target: T1, mD1D2-CaM (murine) (UniProt P0C191+P0DP23); assay: screening ELISA
[2] = biological target: hD1D2 triple mutant (human) (UniProt Q9HCN6); assay: ELISA on hD1D2 mutants
mD1D2-CaM (murine) [3] = biological target: T1, mD1D2-CaM (murine); assay: capture ELISA, bacterial supernatant
mD1D2-CaM (murine) [4] = biological target: T1, mD1D2-CaM (murine); assay: capture ELISA, purified scFv at 10 µg/ml
hD1D2-CaM (human) [5] = biological target: T2, hD1D2-CaM (human) (UniProt Q9HCN6+P0DP23); assay: capture ELISA (BSA-N9A), bacterial supernatant
hD1D2-CaM (human) [6] = biological target: T2, hD1D2-CaM (human); assay: resonant mirror biosensor, immobilised hD1D2-CaM
hD1D2-CaM (human) [7] = biological target: T2, hD1D2-CaM (human); assay: capture ELISA, supernatant of scFv expressed from pUC119
hD1D2-CaM (human) [8] = biological target: T2, hD1D2-CaM (human); assay: direct ELISA, bacterial supernatant, directly coated antigen
hD1D2-CaM (human) [9] = biological target: T2, hD1D2-CaM (human); assay: resonant mirror biosensor, sequential addition without washing
hD1D2-CaM (human) [10] = biological target: T2, hD1D2-CaM (human); assay: ELISA
hD1D2-CaM (human) [11] = biological target: T2, hD1D2-CaM (human); assay: recap of ELISA and ligand binding results

The chains behind the UniProt entries cited, without tags or fusion partners. Where a name states a change or a piece, a line headed by the entry shows the natural chain unless it says otherwise. A line that says so, or that is headed by a name, gives the form on record, which may keep a tag or linker.
UniProt P0C191: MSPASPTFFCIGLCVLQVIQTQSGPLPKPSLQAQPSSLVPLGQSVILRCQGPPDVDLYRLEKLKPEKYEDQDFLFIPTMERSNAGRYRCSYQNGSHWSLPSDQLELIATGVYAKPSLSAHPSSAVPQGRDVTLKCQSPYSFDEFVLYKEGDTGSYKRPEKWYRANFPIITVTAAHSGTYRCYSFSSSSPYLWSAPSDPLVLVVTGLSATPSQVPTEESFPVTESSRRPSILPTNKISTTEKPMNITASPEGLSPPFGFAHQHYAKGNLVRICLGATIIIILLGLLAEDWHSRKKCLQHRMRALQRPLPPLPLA
hD1D2 triple mutant (Q9HCN6, form named): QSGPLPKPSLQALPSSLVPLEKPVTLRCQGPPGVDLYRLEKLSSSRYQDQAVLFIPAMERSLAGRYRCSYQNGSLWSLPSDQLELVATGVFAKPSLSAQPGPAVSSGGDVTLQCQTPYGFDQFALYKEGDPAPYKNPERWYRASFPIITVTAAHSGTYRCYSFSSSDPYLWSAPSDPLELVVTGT

Measured: binding

B1: scFv 1C3 (scFv, V domains shown)
VH: QVQLQQSGAEVKKPGESLKISCQASGYSFSSYWIAWVRQMPGKGLELMGIIYPGDSDARYSPSFQGQVTFSADKSINTAYLQWSSLKASDTAMYYCARQGKTGSYYFGAFDVWGQGTMVTVSS
VL: QSVLTQPPSMSAAPGQKVTISCTGTSSDVGGYNYVSWYQQHPGKAPKLMLFEVSHRPSGVSNRFSGSKSDNTASLTISGLQAEDEADYYCSSYTGSSTWVFGGGTKVTVL
not listed: hD1D2-CaM (human) [10] | hD1D2-CaM (human) [11]
binds: all other assays above

B2: scFv 10B12 (scFv, V domains shown)
VH: EVQLVQSGGGVVQPGGSLRLSCAASGFTFSSYGMHWVRQAPGKGLEWVAFIRYDGSNKYYADSVKGRFTISRDNSKNTLYLQMNSLRAEDTAVYYCTDGWAEMATTDDAFDIWGRGTMVTV
VL: DIQMTQSPSTLSASIGDRVTITCRASEGIYHWLAWYQQKPGKAPKLLIYKASSLASGAPSRFSGSGSGTDFTLTISSLQPDDFATYYCQQYSNYPLTFGGGTKLEIK
not listed: mD1D2-CaM (murine) [1] | [2] | mD1D2-CaM (murine) [3] | mD1D2-CaM (murine) [4]
binds: all other assays above

From patent US20060088531A1
